Measurements taken from paper PMC5037886.
No constants are given. Whether binding was seen depends on the method and setting. Some entries that bind do so weakly or less than the wild type.

Target: CYCLIN-… KINASE A;1 (Arabidopsis thaliana) (UniProt P24100)
Assay: co-purification on Strep-Tactin sepharose; CDKA;1-CYCD2;1 complexes expressed and purified by the system of ref. 36, incubated with 2 mM ATP for 1 h at 30 °C, bound to Strep-Tactin sepharose equilibrated with kinase buffer, eluted with 2.5 mM desthiobiotin

B1: CYCLIN D2;1 (protein, UniProt P42752 1-361)
chain: MAENLACGETSESWIIDNDDDDINYGGGFTNEIDYNHQLFAKDDNFGGNGSIPMMGSSSSSLSEDRIKEMLVREIEFCPGTDYVKRLLSGDLDLSVRNQALDWILKVCAHYHFGHLCICLSMNYLDRFLTSYELPKDKDWAAQLLAVSCLSLASKMEETDVPHIVDLQVEDPKFVFEAKTIKRMELLVVTTLNWRLQALTPFSFIDYFVDKISGHVSENLIYRSSRFILNTTKAIEFLDFRPSEIAAAAAVSVSISGETECIDEEKALSSLIYVKQERVKRCLNLMRSLTGEENVRGTSLSQEQARVAVRAVPASPVGVLEATCLSYRSEERTVESCTNSSQSSPDNNNNNNNSNKRRRKQ
  binding: binds
